For the experiment, the target named is GPC3(AA)-hFc, GPC3-human Fc fusion without the HS chains (human) (UniProt P51654). In words: ELISA, epitope mapping on recombinant GPC3 proteins (FIG. 5).

These are yes or no findings as the source states them, for the method shown. Some binding calls cover weakened binding; strength is not graded here.

B1: HN3 single-domain VH displayed on phage (clone HN3) (VHH)
VHH: QVQLVQSGGGLVQPGGSLRLSCAASYFDFDSYEMSWVRQAPGKGLEWIGSIYHSGSTYYNPSLKSRVTISRDNSKNTLYLQMNTLRAEDTATYYCARVNMDRFDYWGQGTLVTVSS
For B1, the binding result is “binds”.
